# The list shows a part of the results.
# By UniProt entry, the sequences of proteins in these tests, tags left out. Where a name states a change or a piece, a line headed by the entry shows the natural chain unless it says otherwise.
# UniProt Q9C0D3: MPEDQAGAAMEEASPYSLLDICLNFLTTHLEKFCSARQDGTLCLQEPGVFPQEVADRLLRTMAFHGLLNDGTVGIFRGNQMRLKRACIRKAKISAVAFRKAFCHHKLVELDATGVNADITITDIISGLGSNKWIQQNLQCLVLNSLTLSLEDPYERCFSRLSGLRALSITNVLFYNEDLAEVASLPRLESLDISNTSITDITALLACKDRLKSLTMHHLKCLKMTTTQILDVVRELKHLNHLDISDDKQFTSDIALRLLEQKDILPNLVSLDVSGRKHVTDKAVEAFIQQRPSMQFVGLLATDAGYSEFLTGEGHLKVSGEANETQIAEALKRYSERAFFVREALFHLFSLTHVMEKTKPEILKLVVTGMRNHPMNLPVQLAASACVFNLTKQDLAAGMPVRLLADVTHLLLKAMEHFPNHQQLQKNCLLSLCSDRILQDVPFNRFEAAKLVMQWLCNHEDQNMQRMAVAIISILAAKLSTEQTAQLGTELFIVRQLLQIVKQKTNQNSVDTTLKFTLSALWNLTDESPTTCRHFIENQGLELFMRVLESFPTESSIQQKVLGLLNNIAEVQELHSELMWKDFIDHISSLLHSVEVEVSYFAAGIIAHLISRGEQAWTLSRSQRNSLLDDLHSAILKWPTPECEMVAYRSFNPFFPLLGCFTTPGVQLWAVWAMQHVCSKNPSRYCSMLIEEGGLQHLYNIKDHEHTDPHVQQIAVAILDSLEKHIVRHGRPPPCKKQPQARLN
# UniProt O43264: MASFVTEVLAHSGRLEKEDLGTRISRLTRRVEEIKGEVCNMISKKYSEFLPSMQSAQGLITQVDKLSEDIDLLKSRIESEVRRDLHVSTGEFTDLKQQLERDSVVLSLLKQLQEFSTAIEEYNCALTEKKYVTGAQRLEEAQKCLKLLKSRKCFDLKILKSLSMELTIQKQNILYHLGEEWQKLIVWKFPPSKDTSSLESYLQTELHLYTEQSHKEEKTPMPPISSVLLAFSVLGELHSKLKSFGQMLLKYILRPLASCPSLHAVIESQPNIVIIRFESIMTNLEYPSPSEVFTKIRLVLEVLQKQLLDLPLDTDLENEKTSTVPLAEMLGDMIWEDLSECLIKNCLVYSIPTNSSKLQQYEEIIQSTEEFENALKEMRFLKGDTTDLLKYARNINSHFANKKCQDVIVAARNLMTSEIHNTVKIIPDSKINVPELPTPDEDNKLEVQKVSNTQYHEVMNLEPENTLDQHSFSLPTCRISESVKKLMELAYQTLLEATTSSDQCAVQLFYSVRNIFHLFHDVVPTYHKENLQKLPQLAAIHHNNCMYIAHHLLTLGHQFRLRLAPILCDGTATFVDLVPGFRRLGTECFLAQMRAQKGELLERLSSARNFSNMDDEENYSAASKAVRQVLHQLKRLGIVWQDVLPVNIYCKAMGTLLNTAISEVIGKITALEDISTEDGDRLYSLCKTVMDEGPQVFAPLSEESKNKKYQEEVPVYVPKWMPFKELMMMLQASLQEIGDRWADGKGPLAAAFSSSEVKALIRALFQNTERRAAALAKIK
# UniProt Q15942: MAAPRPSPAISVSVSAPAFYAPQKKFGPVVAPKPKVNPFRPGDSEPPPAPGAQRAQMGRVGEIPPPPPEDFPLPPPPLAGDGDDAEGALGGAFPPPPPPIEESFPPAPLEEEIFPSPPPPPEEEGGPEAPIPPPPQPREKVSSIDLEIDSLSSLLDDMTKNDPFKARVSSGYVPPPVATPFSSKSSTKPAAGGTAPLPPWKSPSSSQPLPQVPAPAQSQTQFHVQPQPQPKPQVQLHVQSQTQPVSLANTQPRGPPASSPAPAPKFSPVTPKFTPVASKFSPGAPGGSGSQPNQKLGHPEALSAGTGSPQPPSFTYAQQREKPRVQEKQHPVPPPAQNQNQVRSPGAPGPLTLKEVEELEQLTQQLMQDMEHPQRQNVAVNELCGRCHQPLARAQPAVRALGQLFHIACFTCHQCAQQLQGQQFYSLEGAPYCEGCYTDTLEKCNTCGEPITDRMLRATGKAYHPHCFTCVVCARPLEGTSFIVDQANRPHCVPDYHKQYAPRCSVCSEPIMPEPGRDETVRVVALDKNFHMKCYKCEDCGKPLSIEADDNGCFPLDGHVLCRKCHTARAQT
# UniProt Q9P2E3: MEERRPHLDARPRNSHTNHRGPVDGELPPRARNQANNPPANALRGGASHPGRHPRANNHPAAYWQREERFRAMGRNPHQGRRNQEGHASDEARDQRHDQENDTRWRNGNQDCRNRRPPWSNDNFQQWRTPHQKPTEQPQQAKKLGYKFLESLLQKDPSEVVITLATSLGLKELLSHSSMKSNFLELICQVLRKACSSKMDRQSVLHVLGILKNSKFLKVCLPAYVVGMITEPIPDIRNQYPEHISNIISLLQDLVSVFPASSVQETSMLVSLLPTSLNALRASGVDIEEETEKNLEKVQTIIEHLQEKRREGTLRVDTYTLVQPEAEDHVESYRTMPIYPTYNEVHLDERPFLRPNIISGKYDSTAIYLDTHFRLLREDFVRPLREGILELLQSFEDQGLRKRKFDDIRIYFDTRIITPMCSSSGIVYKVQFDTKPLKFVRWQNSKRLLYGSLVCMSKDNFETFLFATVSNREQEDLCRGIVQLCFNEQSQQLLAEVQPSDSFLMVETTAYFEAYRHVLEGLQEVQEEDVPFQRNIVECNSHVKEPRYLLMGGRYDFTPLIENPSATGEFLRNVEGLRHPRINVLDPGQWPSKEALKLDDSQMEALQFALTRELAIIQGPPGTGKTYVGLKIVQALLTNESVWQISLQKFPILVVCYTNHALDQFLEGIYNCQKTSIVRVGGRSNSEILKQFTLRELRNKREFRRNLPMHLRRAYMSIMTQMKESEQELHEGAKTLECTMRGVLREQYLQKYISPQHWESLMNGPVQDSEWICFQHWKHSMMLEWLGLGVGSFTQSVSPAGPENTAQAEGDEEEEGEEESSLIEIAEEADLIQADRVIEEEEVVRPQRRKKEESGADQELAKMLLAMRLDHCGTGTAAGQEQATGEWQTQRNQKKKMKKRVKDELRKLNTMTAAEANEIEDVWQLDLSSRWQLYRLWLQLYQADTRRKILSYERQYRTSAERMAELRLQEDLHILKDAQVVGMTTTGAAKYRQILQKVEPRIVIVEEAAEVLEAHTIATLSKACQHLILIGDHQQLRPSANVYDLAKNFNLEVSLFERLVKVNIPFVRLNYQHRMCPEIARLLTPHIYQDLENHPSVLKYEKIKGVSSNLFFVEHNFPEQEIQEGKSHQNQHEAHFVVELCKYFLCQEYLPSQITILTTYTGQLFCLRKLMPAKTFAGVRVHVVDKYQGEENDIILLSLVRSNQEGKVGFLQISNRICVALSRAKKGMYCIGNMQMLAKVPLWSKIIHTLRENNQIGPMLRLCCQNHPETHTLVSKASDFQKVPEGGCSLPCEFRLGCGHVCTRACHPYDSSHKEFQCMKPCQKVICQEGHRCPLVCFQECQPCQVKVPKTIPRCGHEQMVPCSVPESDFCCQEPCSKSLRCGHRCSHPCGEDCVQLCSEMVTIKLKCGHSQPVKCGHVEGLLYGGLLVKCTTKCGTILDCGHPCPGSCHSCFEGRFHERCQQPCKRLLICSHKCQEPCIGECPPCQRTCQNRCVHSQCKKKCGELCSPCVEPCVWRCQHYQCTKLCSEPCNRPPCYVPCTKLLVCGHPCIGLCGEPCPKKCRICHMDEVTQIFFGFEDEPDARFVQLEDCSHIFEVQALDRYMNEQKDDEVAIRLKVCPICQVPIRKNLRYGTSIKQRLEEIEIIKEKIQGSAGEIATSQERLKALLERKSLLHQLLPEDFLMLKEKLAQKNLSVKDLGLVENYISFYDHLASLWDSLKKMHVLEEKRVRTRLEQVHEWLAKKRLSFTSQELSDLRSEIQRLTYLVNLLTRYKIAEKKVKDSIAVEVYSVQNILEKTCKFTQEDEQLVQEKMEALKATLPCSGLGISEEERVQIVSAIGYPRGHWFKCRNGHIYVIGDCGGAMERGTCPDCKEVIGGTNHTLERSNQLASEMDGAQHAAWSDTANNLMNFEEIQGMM
# UniProt O95218: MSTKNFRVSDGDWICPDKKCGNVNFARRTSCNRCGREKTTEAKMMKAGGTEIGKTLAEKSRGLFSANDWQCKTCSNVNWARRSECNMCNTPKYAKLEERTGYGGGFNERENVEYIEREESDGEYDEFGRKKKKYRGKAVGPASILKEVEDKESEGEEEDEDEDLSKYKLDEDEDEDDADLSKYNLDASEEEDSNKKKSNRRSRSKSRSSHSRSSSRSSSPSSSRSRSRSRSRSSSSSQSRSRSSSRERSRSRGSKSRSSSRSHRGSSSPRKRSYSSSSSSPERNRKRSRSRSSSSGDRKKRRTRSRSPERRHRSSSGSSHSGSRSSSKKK
# UniProt Q8IYH5: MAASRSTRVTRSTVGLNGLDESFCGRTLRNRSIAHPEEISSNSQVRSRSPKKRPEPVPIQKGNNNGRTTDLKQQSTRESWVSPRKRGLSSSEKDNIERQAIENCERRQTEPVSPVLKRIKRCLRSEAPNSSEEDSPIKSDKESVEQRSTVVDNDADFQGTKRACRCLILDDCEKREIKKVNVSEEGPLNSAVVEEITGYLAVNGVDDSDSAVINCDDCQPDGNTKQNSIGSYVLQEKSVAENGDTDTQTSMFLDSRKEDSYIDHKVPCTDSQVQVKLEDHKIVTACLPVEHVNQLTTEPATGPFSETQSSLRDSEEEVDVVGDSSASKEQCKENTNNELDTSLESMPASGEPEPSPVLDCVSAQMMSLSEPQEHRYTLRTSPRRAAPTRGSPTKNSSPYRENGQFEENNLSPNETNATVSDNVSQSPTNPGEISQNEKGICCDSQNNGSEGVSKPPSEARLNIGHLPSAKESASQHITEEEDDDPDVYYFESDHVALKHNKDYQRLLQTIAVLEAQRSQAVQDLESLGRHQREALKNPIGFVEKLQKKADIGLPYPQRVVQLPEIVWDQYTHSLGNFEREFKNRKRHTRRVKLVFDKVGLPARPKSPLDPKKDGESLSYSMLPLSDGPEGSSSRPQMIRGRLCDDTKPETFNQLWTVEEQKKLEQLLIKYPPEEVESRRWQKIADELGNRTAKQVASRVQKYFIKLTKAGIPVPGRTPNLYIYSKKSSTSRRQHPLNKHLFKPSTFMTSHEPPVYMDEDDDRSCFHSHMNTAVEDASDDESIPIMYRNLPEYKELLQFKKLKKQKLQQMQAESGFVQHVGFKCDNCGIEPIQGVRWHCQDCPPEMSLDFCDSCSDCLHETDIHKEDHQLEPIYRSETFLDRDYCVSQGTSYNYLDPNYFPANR
# UniProt O43257, whole entry: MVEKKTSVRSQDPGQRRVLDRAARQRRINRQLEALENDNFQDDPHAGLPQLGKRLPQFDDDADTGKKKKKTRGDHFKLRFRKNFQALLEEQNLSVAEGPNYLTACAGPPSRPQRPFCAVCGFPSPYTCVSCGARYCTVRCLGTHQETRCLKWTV
# UniProt P0CJ78: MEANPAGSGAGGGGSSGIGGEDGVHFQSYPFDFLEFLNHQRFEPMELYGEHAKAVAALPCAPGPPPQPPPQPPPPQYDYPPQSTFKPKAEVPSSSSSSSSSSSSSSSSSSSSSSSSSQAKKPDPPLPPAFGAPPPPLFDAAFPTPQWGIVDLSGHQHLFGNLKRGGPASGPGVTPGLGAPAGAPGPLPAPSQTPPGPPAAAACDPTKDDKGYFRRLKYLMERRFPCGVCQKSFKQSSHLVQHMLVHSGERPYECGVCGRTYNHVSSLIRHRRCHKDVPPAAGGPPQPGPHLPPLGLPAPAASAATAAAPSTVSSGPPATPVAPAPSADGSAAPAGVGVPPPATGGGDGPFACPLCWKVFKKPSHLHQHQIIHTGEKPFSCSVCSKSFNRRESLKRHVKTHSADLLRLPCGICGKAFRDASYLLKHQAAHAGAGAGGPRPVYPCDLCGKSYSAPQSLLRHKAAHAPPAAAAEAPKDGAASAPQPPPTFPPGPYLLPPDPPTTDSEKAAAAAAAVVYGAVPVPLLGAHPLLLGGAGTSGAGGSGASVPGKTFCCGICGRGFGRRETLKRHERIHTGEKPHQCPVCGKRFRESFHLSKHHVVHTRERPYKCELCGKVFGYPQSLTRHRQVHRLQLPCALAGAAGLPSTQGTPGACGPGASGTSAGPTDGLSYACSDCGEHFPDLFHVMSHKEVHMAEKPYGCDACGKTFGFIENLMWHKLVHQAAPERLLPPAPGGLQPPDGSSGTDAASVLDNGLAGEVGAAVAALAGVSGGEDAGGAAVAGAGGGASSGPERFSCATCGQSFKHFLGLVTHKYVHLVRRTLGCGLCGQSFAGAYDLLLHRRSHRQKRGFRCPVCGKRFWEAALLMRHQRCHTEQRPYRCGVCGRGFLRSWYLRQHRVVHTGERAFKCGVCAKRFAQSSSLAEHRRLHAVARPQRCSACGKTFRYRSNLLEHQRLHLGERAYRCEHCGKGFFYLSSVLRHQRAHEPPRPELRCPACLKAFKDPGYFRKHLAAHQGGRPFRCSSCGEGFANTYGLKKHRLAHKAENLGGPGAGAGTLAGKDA
# Assays:
# [1] = compound: Cc1cc(ccc1-c1ccccc1)C(=O)N1CCCN(CC1)C(=O)CCl [compound 10]; experiment: probe-labelled cysteine peptide fold change vs DMSO (competition) (log2 fold change); higher = less target engagement (more negative = stronger competition); conditions: THP-1, incubation time: 4 h
# [2] = compound: CC1Cc2ccccc2N1C(=O)C1CCCN(C1)C(=O)CCl (mixture of isomers) [TRIM25 ligand 11 (diastereomer mixture)]; experiment: as above; conditions: THP-1, incubation time: 4 h
Target,probe-labelled cysteine peptide fold change ([1]; 10 µM),probe-labelled cysteine peptide fold change ([1]; 50 µM),probe-labelled cysteine peptide fold change ([2]; 10 µM),probe-labelled cysteine peptide fold change ([2]; 50 µM)
ZYG11B_Q9C0D3_207_LESLDISNTSITDITALLACK (UniProt Q9C0D3),0.312,-0.272,–,–
ZSWIM8_A7E2V4_1094_NVPESSPHSPCEGLPSEAALTPRPEGK (UniProt A7E2V4),-0.465,-0.583,–,–
ZW10_O43264_346_NCLVYSIPTNSSK (UniProt O43264),0.235,0.0445,–,–
ZZEF1_O43149_728_DTEESVCGATLLLR (UniProt O43149),-0.0306,-0.17,–,–
ZYX_Q15942_537+553_CEDCGKPLSIEADDNGCFPLDGHVLCR (UniProt Q15942),-0.0759,-0.421,–,–
ZWILCH_Q9H900_354_SDLDFAEQLWCK (UniProt Q9H900),0.0331,0.201,–,–
ZNFX1_Q9P2E3_1558_LLVCGHPCIGLCGEPCPK (UniProt Q9P2E3),-0.0234,-0.124,–,–
ZYX_Q15942_537+540+553+562_CEDCGKPLSIEADDNGCFPLDGHVLCR (UniProt Q15942),-0.214,-0.795,–,–
ZYX_Q15942_492_PLEGTSFIVDQANRPHCVPDYHK (UniProt Q15942),-0.105,-0.253,–,–
ZNF839_A8K0R7_48+54_TEPQSCFLSDLCQPPAQGFVQR (UniProt A8K0R7),-0.175,0.672,–,–
ZYX_Q15942_504_CSVCSEPIMPEPGR (UniProt Q15942),-0.07,-0.161,–,–
ZYX_Q15942_553+562_PLSIEADDNGCFPLDGHVLCR (UniProt Q15942),0.00642,-0.255,–,–
ZNHIT6_Q9NWK9_181_EELMHGECVK (UniProt Q9NWK9),-0.57,0.129,–,–
ZZEF1_O43149_2553_CDQATAESNPVTQK (UniProt O43149),-0.226,0.0833,–,–
ZRANB2_O95218_20_CGNVNFAR (UniProt O95218),-0.0495,-0.314,–,–
ZNRD1_Q9P1U0_78_TSVVFHQLGTAMPMSVEEGPECQGPVVDRR (UniProt Q9P1U0),-0.0277,-0.554,–,–
ZWILCH_Q9H900_585_IFFTNMVTCSQVHFK (UniProt Q9H900),-0.0899,0.0202,–,–
ZZZ3_Q8IYH5_24_STVGLNGLDESFCGR (UniProt Q8IYH5),-0.35,0.146,–,–
ZYX_Q15942_537_CEDCGKPLSIEADDNGCFPLDGHVLCR (UniProt Q15942),0.195,0.192,–,–
ZPR1_O75312_288+291_EVIIMATNCENCGHR (UniProt O75312),-0.03,-0.565,–,–
ZRANB2_O95218_71_GLFSANDWQCK (UniProt O95218),-0.0624,-0.328,–,–

Target,probe-labelled cysteine peptide fold change ([1]; 10 µM),probe-labelled cysteine peptide fold change ([1]; 50 µM),probe-labelled cysteine peptide fold change ([2]; 10 µM),probe-labelled cysteine peptide fold change ([2]; 50 µM)
ZYX_Q15942_384_QNVAVNELCGR (UniProt Q15942),-0.0364,-0.279,–,–
ZZEF1_O43149_1259_HQVCPELELEASWPTHPHR (UniProt O43149),-0.201,-0.0771,–,–
ZUP1_Q96AP4_478_VVCTSKPPIYLQHQGHSR (UniProt Q96AP4),0.0441,-0.0216,–,–
ZSWIM8_A7E2V4_1365_AAAELALSCLPHAHALNPNEIQR (UniProt A7E2V4),0.147,-0.0262,–,–
ZZEF1_O43149_2466_ICFLMAHDALNAPLHILR (UniProt O43149),0.0542,-0.135,–,–
ZYG11B_Q9C0D3_386_NHPMNLPVQLAASACVFNLTK (UniProt Q9C0D3),-0.0351,-0.172,–,–
ZRANB2_O95218_15_VSDGDWICPDK (UniProt O95218),-0.064,-0.131,–,–
ZSCAN20_P17040_399_SSHPPGTCPFYEELEALVR (UniProt P17040),-0.0355,-0.403,–,–
ZNFX1_Q9P2E3_1292_VPEGGCSLPCEFR (UniProt Q9P2E3),-0.288,-0.526,–,–
ZRANB2_O95218_85_RSECNMCNTPK (UniProt O95218),0.0474,-0.361,–,–
ZWILCH_Q9H900_7_LNCAAEDFYSR (UniProt Q9H900),0.017,0.0199,–,–
ZZZ3_Q8IYH5_104_QAIENCER (UniProt Q8IYH5),-0.328,-0.158,–,–
ZYX_Q15942_444+447_CNTCGEPITDR (UniProt Q15942),0.0967,-0.162,–,–
ZYX_Q15942_470+473_AYHPHCFTCVVCAR (UniProt Q15942),0.0309,-0.247,–,–
ZNFX1_Q9P2E3_1302_LGCGHVCTR (UniProt Q9P2E3),-0.0419,-0.239,–,–
ZSWIM8_A7E2V4_979_TTVSEAEHPLLCEGTR (UniProt A7E2V4),-0.0121,-0.0128,–,–
ZZEF1_O43149_2932_CAAQALQNIAAISLAINYPNK (UniProt O43149),0.0979,0.478,–,–
ZNF787_Q6DD87_376_AGGEEEDDDDEAAGGRCPECR (UniProt Q6DD87),0.0638,-0.333,–,–
ZW10_O43264_588_LGTECFLAQMR (UniProt O43264),0.071,0.103,–,–
ZNFX1_Q9P2E3_539_NIVECNSHVK (UniProt Q9P2E3),-0.309,-0.157,–,–
ZW10_O43264_477_VSNTQYHEVMNLEPENTLDQHSFSLPTCR (UniProt O43264),0.072,-0.05,–,–

Target,probe-labelled cysteine peptide fold change ([1]; 10 µM),probe-labelled cysteine peptide fold change ([1]; 50 µM),probe-labelled cysteine peptide fold change ([2]; 10 µM),probe-labelled cysteine peptide fold change ([2]; 50 µM)
ZYX_Q15942_467+473_AYHPHCFTCVVCAR (UniProt Q15942),0.0235,0.145,–,–
ZNFX1_Q9P2E3_1416_CGHVEGLLYGGLLVK (UniProt Q9P2E3),-0.13,-0.405,–,–
ZNRD1_Q9P1U0_115+118_SADEGQTVFYTCTNCK (UniProt Q9P1U0),-0.172,-0.15,–,–
ZZEF1_O43149_1287_NIPDDPCR (UniProt O43149),-0.0608,-0.0718,–,–
ZNHIT2_Q9UHR6_188_VLGDVPGACTPVVPTR (UniProt Q9UHR6),-0.284,-0.106,–,–
ZNHIT2_Q9UHR6_41_THGTCAENFYR (UniProt Q9UHR6),-0.0377,-0.271,–,–
ZNHIT6_Q9NWK9_171_FVGQCIK (UniProt Q9NWK9),-0.528,-0.0997,–,–
ZNFX1_Q9P2E3_1860_NGHIYVIGDCGGAMER (UniProt Q9P2E3),0.0615,0.0398,–,–
ZNFX1_Q9P2E3_1288_VPEGGCSLPCEFR (UniProt Q9P2E3),0.108,-0.242,–,–
ZYX_Q15942_470_AYHPHCFTCVVCAR (UniProt Q15942),0.0156,0.121,–,–
ZYX_Q15942_504+507_CSVCSEPIMPEPGRDETVR (UniProt Q15942),0.0548,-0.176,–,–
ZZEF1_O43149_1832+1835_TCFLGGVKPEGHGDDHEMVNMEFTCDHCQGLIIGR (UniProt O43149),-0.0669,-0.343,–,–
ZNHIT1_O43257_140_CLGTHQETR (UniProt O43257),-0.0501,-0.199,–,–
ZW10_O43264_568_LAPILCDGTATFVDLVPGFR (UniProt O43264),-0.16,-0.0756,–,–
ZYX_Q15942_540+553_CEDCGKPLSIEADDNGCFPLDGHVLCR (UniProt Q15942),0.0325,-0.585,–,–
ZYX_Q15942_537+540+553_CEDCGKPLSIEADDNGCFPLDGHVLCR (UniProt Q15942),-0.154,-0.821,–,–
ZNF865_P0CJ78_383_PFSCSVCSK (UniProt P0CJ78),-0.0919,-0.259,–,–
ZW10_O43264_124_QLQEFSTAIEEYNCALTEK (UniProt O43264),-0.263,0.0036,–,–
ZYX_Q15942_540+553+562_CEDCGKPLSIEADDNGCFPLDGHVLCR (UniProt Q15942),-0.0975,-0.457,–,–
ZYX_Q15942_553+562_CEDCGKPLSIEADDNGCFPLDGHVLCR (UniProt Q15942),-0.0534,-0.641,–,–
ZYX_Q15942_553_PLSIEADDNGCFPLDGHVLCR (UniProt Q15942),0.0817,0.0809,–,–

# For convenience, some entries already given:
Target,probe-labelled cysteine peptide fold change ([1]; 10 µM),probe-labelled cysteine peptide fold change ([1]; 50 µM),probe-labelled cysteine peptide fold change ([2]; 10 µM),probe-labelled cysteine peptide fold change ([2]; 50 µM)
ZNHIT1_O43257_140_CLGTHQETR (UniProt O43257),-0.0501,-0.199,–,–
ZW10_O43264_568_LAPILCDGTATFVDLVPGFR (UniProt O43264),-0.16,-0.0756,–,–
ZYX_Q15942_540+553_CEDCGKPLSIEADDNGCFPLDGHVLCR (UniProt Q15942),0.0325,-0.585,–,–
ZYX_Q15942_537+540+553_CEDCGKPLSIEADDNGCFPLDGHVLCR (UniProt Q15942),-0.154,-0.821,–,–
ZNF865_P0CJ78_383_PFSCSVCSK (UniProt P0CJ78),-0.0919,-0.259,–,–
ZW10_O43264_124_QLQEFSTAIEEYNCALTEK (UniProt O43264),-0.263,0.0036,–,–

# Later entries.

Target,probe-labelled cysteine peptide fold change ([1]; 10 µM),probe-labelled cysteine peptide fold change ([1]; 50 µM),probe-labelled cysteine peptide fold change ([2]; 10 µM),probe-labelled cysteine peptide fold change ([2]; 50 µM)
ZYX_Q15942_537+540_CEDCGKPLSIEADDNGCFPLDGHVLCR (UniProt Q15942),0.194,-0.104,–,–
ZNF787_Q6DD87_350_IHAVGAPSVCSSCGQSYYR (UniProt Q6DD87),-0.238,-0.311,–,–
ZNHIT3_Q15649_30_VPYCSVVCFR (UniProt Q15649),-0.0726,-1.11,–,–
ZYX_Q15942_467+470_AYHPHCFTCVVCAR (UniProt Q15942),-0.0656,0.22,–,–
ZNFX1_Q9P2E3_1554_LLVCGHPCIGLCGEPCPK (UniProt Q9P2E3),0.059,-0.149,–,–
ZRANB2_O95218_15_VSDGDWICPDKK (UniProt O95218),-0.0806,-0.144,–,–
ZYX_Q15942_562_PLSIEADDNGCFPLDGHVLCR (UniProt Q15942),0.0232,0.0852,–,–
ZZEF1_O43149_719_AEAEQSVTCAHCR (UniProt O43149),0.0218,-0.134,–,–
ZNF830_Q96NB3_314_QIGEIDEQIECYR (UniProt Q96NB3),-0.0668,-0.0552,–,–
ZNFX1_Q9P2E3_1591_FVQLEDCSHIFEVQALDR (UniProt Q9P2E3),0.0478,0.0689,–,–
ZYX_Q15942_467+470+473_AYHPHCFTCVVCAR (UniProt Q15942),-0.111,-0.34,–,–
ZYX_Q15942_387_CHQPLAR (UniProt Q15942),-0.0859,-0.479,–,–
ABL2_P42684_415_NCLVGENHVVK (UniProt P42684),–,–,0.0416,0.145
ACAP2_Q15057_691_GPLHHATVLGHTGQVCLFLK (UniProt Q15057),–,–,-0.0338,-0.202
ACBD3_Q9H3P7_168_CCHLFSTYVASHK (UniProt Q9H3P7),–,–,0.0944,-0.0099
ACOT11_Q8WXI4_498_RKPCDNGDPYVIALR (UniProt Q8WXI4),–,–,-0.07,-0.0208
ABCA2_Q9BZC7_1542_LPSGVGATCVLK (UniProt Q9BZC7),–,–,-0.0564,-0.0927
ACACA_Q13085_1396_NFDLTAIPCANHK (UniProt Q13085),–,–,0.0588,-0.0964
ABCF3_Q9NUQ8_522_ICVVGENGAGK (UniProt Q9NUQ8),–,–,0.00841,-0.129

# Source: the supplement of paper PMC12067093, “Discovery and optimisation of a covalent ligand for TRIM25 and its application to targeted protein ubiquitination” (Chemical Science, 2025)
